The target in this experiment is Flag-USP5 (wild type) (UniProt P45974). Description: co-IP; MDA-MB-231/SK-BR-3 cells co-transfected with HA-GPX4 (or mutants) and Flag-USP5; precipitated with anti-Flag antibody.

Chains of the proteins cited; added tags and fusions are not shown.
UniProt P45974: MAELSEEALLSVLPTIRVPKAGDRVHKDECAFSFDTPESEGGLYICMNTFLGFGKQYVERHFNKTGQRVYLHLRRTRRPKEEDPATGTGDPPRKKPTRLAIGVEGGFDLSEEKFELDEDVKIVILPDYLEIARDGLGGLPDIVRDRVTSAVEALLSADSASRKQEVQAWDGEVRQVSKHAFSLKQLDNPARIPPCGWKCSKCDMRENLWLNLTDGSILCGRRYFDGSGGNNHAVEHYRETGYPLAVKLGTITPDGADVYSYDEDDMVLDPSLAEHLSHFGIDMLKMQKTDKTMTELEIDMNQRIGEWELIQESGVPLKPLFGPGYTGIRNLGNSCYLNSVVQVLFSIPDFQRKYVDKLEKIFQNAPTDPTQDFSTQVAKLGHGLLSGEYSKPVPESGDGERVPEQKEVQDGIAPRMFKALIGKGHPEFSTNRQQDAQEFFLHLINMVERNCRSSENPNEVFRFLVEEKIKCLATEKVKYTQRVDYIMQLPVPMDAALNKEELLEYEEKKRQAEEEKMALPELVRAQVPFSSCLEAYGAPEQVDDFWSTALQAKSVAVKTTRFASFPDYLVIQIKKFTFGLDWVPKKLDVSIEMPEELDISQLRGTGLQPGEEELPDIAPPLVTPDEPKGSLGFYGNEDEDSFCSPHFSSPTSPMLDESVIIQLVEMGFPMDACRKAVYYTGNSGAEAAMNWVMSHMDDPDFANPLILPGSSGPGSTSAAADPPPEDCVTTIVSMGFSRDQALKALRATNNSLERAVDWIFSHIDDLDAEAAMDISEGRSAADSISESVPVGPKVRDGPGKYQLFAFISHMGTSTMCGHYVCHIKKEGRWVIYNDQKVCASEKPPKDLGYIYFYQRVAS

These are yes or no findings as the source states them, for the method shown. Binding seen in cells or lysates may run through a third protein. Some results given as binding are weak or reduced against the parent protein; the word gives no strength.

With “GPX4-Δ2 (aa 28-197), HA-tagged (from UniProt P36969 28-197) (domain or fragment)”, the binding result is “binds”.

The values are drawn from paper PMC12523187.
